These results are taken from publication PMC10868794.

For some of these results: A negative result means that nothing was seen under these conditions. For some of these results: For at least one entry, the source does not settle the construct or the ends of the probe.

Data set [1] has as its system MBP-ZmARF1. Briefly: competition EMSA. The note with it: LightShift Chemiluminescent EMSA Kit binding buffer (composition, salt and pH not stated), 10 uL reaction, 20 fmol biotin probe, 25 C 30 min, 7% polyacrylamide gel, recombinant protein, protein details: MBP (N-terminal), label: none (unlabeled competitor).
Data set [2] has as its target MBP (UniProt P0AEX9). The data set can be described thus: EMSA. The note with it: tag-only control; LightShift Chemiluminescent EMSA Kit binding buffer (composition, salt and pH not stated), 10 uL reaction, 20 fmol biotin probe, 25 C 30 min, 7% polyacrylamide gel; recombinant protein; label: 5' biotin.
The test system of data set [3] is MBP-ZmARF1. The data set can be described thus: EMSA. To be noted: LightShift Chemiluminescent EMSA Kit binding buffer (composition, salt and pH not stated), 10 uL reaction, 20 fmol biotin probe, 25 C 30 min, 7% polyacrylamide gel; recombinant protein; protein details: MBP (N-terminal); label: 5' biotin.
In data set [4] the test system is MBP-ZmERF2 (Zea mays). The data set can be described thus: competition EMSA. The note with it: LightShift Chemiluminescent EMSA Kit binding buffer (composition, salt and pH not stated), 10 uL reaction, 20 fmol biotin probe, 25 C 30 min, 7% polyacrylamide gel, recombinant protein, protein details: MBP (N-terminal), label: none (unlabeled competitor). For orientation: A gel shift assay detects complexes by their altered migration in electrophoresis.

Data set [5] concerns MBP-ZmERF2 (Zea mays). The data set can be described thus: EMSA. To be noted: LightShift Chemiluminescent EMSA Kit binding buffer (composition, salt and pH not stated), 10 uL reaction, 20 fmol biotin probe, 25 C 30 min, 7% polyacrylamide gel; recombinant protein; protein details: MBP (N-terminal); label: 5' biotin.

As to “ACTGGGCCGGCATCATCCGGAACGCCACTGGGCCGGCATCATCCGGAACGCCACTGGGCCGGCATCATCCGGAACGCC (double strand) [GC-box mutant competitor (mu-pLBD1)]”, the binding result in data set [1] (mutant competitor against N1, no effect on shifted band) is “no binding”.
Regarding “ACTGGGCCGGCCGCCGCCGGAACGCCACTGGGCCGGCCGCCGCCGGAACGCCACTGGGCCGGCCGCCGCCGGAACGCC (double strand) [Bio-pLBD1 GC-box probe]”, the binding result is given as “no binding” in data set [2] and “binds” in data set [3].
As to “ACTGGGCCGGCCGCCGCCGGAACGCCACTGGGCCGGCCGCCGCCGGAACGCCACTGGGCCGGCCGCCGCCGGAACGCC (double strand) [GC-box unlabeled competitor]”, in data set [1] (unlabeled competitor 5x to 50x against N1), the binding result was “binds”.
Regarding “AGTAGAATAGTAATTGTGTTTTTCTCTAATATACTATAATTGTGAAATTTTCAAGCCACTAGTAATTGCTAGTTAATT (double strand) [ABRE mutant competitor (mu-pZmARF1)]”, in data set [4] (mutant competitor against N4, no effect on shifted band), the binding result is reported as “no binding”.
As for “AGTAGAATAGTACGTGTGTTTTTCTCTAATATACTATACGTGTGAAATTTTCAAGCCACTAGTACGTGCTAGTTAATT (double strand) [ABRE unlabeled competitor]”, the binding result in data set [4] (increasing unlabeled competitor against N4) was “binds”.
Turning to “AGTAGAATAGTACGTGTGTTTTTCTCTAATATACTATACGTGTGAAATTTTCAAGCCACTAGTACGTGCTAGTTAATT (double strand) [Bio-pZmARF1 ABRE probe]”, the binding result in data set [5] was “binds”.
